Experimental data published in patent US20180148764.
No signal at the amounts used counts as a negative. For at least one entry, the source does not settle the construct or the ends of the probe.

The chains behind the UniProt entries cited, without tags or fusion partners. Where a name states a change or a piece, a line headed by the entry shows the natural chain unless it says otherwise.
UniProt P0A847: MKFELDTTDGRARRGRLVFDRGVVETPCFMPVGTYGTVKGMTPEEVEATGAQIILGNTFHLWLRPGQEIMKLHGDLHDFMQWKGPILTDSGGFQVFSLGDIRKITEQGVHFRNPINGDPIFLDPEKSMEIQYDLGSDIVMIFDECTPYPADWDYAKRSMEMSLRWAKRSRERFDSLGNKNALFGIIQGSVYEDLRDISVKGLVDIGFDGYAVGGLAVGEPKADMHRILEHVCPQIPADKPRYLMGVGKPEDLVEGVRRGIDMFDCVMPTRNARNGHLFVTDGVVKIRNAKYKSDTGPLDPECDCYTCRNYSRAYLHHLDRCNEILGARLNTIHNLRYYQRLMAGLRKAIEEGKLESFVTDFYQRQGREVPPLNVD

Target: tRNA guanine transglycosylase (TGT) (Escherichia coli) (UniProt P0A847)
Test: activity assay
Conditions: purified recombinant protein

## GCAGACUCUAAAUCUGC [ECY-A1ΔC]
No PreQ1-TO incorporation detected by LC/MS, 20 mM MgCl2, 37 C, variant of ECY-A1
  activity on this sequence: not active

## GGGAAUAAUUUUGUUUAACUUUAAGAAGGAGAUAUAAUGGUGAGCAAGGGCGAGGAGGAUAACAUGGCCAUCAUCAAGGAGUUCAUGCGCUUCAAGGUGCACAUGGAGGGCUCCGUGAACGGCCACGAGUUCGAGAUCGAGGGCGAGGGCGAGGGCCGCCCCUACGAGGGCACCCAGACCGCCAAGCUGAAGGUGACCAAGGGUGGCCCCCUGCCCUUCGCCUGGGACAUCCUGUCCCCUCAGUUCAUGUACGGCUCCAAGGCCUACGUGAAGCACCCCGCCGACAUCCCCGACUACUUGAAGCUGUCCUUCCCCGAGGGCUUCAAGUGGGAGCGCGUGAUGAACUUCGAGGACGGCGGCGUGGUGACCGUGACCCAGGACUCCUCCCUGCAGGACGGCGAGUUCAUCUACAAGGUGAAGCUGCGCGGCACCAACUUCCCCUCCGACGGCCCCGUAAUGCAGAAGAAGACCAUGGGCUGGGAGGCCUCCUCCGAGCGGAUGUACCCCGAGGACGGCGCCCUGAAGGGCGAGAUCAAGCAGAGGCUGAAGCUGAAGGACGGCGGCCACUACGACGCUGAGGUCAAGACCACCUACAAGGCCAAGAAGCCCGUGCAGCUGCCCGGCGCCUACAACGUCAACAUCAAGUUGGACAUCACCUCCCACAACGAGGACUACACCAUCGUGGAACAGUACGAACGCGCCGAGGGCCGCCACUCCACCGGCGGCAUGGACGAGCUGUACAAGUAACCCCAUGUAUCUAAAUCAGCACCCAUCAUUUUCAUAUCCCCGCAGACUCUAAAUCUGCCCCCAUGCGCAGACUCUAAAUCUGCCCCCAUGCGCAGACUCUAAAUCUGCCCCCAUGCGCAGACUCUAAAUCUGCCCCCAUGCGCAGACUCUAAAUCUGCCCCCAUGCGCAGACUCUAAAUCUGCCCCCAUGCGCAGACUCUAAAUCUGCCCCCAUGCGCAGACUCUAAAUCUGCCCCCAUGCGCAGACUCUAAAUCUGCCCCCAUGUAUCUAAAUCAGCACCCAUCAUUUUCAUAUCCCCCGAAAGGCGGGCUUUUCUGUGUCUCGAG [mCherry-TAGΔC transcript]
Negligible labeling with PreQ1-BODIPY and PreQ1-TO, no pull-down after PreQ1-biotin, variant of mCherry-TAG transcript
  activity on this sequence: not active

## GGGAAUAAUUUUGUUUAACUUUAAGAAGGAGAUAUAAUGGUGAGCAAGGGCGAGGAGGAUAACAUGGCCAUCAUCAAGGAGUUCAUGCGCUUCAAGGUGCACAUGGAGGGCUCCGUGAACGGCCACGAGUUCGAGAUCGAGGGCGAGGGCGAGGGCCGCCCCUACGAGGGCACCCAGACCGCCAAGCUGAAGGUGACCAAGGGUGGCCCCCUGCCCUUCGCCUGGGACAUCCUGUCCCCUCAGUUCAUGUACGGCUCCAAGGCCUACGUGAAGCACCCCGCCGACAUCCCCGACUACUUGAAGCUGUCCUUCCCCGAGGGCUUCAAGUGGGAGCGCGUGAUGAACUUCGAGGACGGCGGCGUGGUGACCGUGACCCAGGACUCCUCCCUGCAGGACGGCGAGUUCAUCUACAAGGUGAAGCUGCGCGGCACCAACUUCCCCUCCGACGGCCCCGUAAUGCAGAAGAAGACCAUGGGCUGGGAGGCCUCCUCCGAGCGGAUGUACCCCGAGGACGGCGCCCUGAAGGGCGAGAUCAAGCAGAGGCUGAAGCUGAAGGACGGCGGCCACUACGACGCUGAGGUCAAGACCACCUACAAGGCCAAGAAGCCCGUGCAGCUGCCCGGCGCCUACAACGUCAACAUCAAGUUGGACAUCACCUCCCACAACGAGGACUACACCAUCGUGGAACAGUACGAACGCGCCGAGGGCCGCCACUCCACCGGCGGCAUGGACGAGCUGUACAAGUAACCCCAUGUAUCUAAAUCAGCACCCAUCAUUUUCAUAUCCCCGCAGACUGUAAAUCUGCCCCCAUGUAUCUAAAUCAGCACCCAUCAUUUUCAUAUCCCCCGAAAGGCGGGCUUUUCUGUGUCUCGAG [mCherry-TAG transcript]
PreQ1-BODIPY, Cy7, TO and biotin labeling, denaturing PAGE and fluorescence, 20 mM MgCl2
  activity on this sequence: active
